PMC3916906
Results are given in words; binding and its absence hold for the method and conditions named. For some of these results: Binding seen in cells or lysates may run through a third protein. Some results given as binding are weak or reduced against the parent protein; the word gives no strength.

Experiments:
Details in all cases: remark: other sources report otherwise
[1] = target: FLAG-HA-tagged Ago2 (FHA-Ago2) (human), Q9UKV8; assay: co-IP; anti-FLAG immunoprecipitation of FHA-Ago2 from nuclear extract of T47D cells stably expressing it; HeLa nuclear extract as negative control; Western blot
[2] = target: T1, Argonaute-2 (Ago2), endogenous (human (endogenous in HeLa and T47D)), Q9UKV8; assay: anion-exchange chromatography; high molecular weight size-exclusion fractions of HeLa nuclear extract concentrated and run on Mono-Q, linear gradient 0.1 to 1 M NaCl; fractions by Western blot
[3] = target: T1, Argonaute-2 (Ago2), endogenous (human …); assay: SEC; HeLa nuclear extract, treated with RNase A or SUPERase-In, on Superdex 200 HiLoad 16/60 in 20 mM Tris-HCl pH 7.5, 150 mM NaCl, 3 mM MgCl2, 5% glycerol; fractions by Western blot
[4] = target: T1, Argonaute-2 (Ago2), endogenous (human …); assay: co-IP; endogenous proteins from pre-cleared HeLa nuclear extract; Protein G Plus/Protein A resin and antibody, 4°C, 2-3 h; wash 20 mM Tris-HCl pH 7.5, 0.4 M NaCl, 2 mM MgCl2, 0.05% NP-40, 0.025% SDS; Western blot

binding [1]: binds
binding [2]: binds
binding [3]: binds
binding [4]: binds
B1: TAR RNA-binding protein (TRBP), endogenous, Q15633 1-366 (protein)
chain: MSEEEQGSGTTTGCGLPSIEQMLAANPGKTPISLLQEYGTRIGKTPVYDLLKAEGQAHQPNFTFRVTVGDTSCTGQGPSKKAAKHKAAEVALKHLKGGSMLEPALEDSSSFSPLDSSLPEDIPVFTAAAAATPVPSVVLTRSPPMELQPPVSPQQSECNPVGALQELVVQKGWRLPEYTVTQESGPAHRKEFTMTCRVERFIEIGSGTSKKLAKRNAAAKMLLRVHTVPLDARDGNEVEPDDDHFSIGVGSRLDGLRNRGPGCTWDSLRNSVGEKILSLRSCSLGSLGALGPACCRVLSELSEEQAFHVSYLDIEELSLSGLCQCLVELSTQPATVCHGSATTREAARGEAARRALQYLKIMAGSK
